This note sets out measurements from publication PMC11789580.

The experiment deals with T1, MORF2 of the MORF2 overexpression line (MORF2OX) (Arabidopsis) (UniProt O22793).
T1 sequence: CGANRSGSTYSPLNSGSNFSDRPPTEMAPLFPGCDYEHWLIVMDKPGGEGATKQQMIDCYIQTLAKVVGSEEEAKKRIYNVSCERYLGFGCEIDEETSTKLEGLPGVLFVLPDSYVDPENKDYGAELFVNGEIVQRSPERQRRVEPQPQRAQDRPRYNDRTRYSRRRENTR
The experiment can be described thus: affinity purification with mass spectrometry; Co-IP of MORF2 from the MORF2 overexpression line (MORF2OX), wild type as negative control; carried out previously (ref. 31), RPOTp counts shown in Figure 1A.

No constants are given. Whether binding was seen depends on the method and setting. In cells and extracts the contact can be indirect. These calls come from enrichment with a bait or labelling near it, and not all partners need be listed.

B1: RPOTp (endogenous, Arabidopsis) (enzyme, UniProt O24600 96-993)
chain: AGTIKGASLIEELENPVERNGLSGRRRLFMQDPPWISALFLKGLSKMVDQTLKIERKDIDKRKFDSLRRRQVKEETEAWERMVDEYRDLEKEMCEKNLAPNLPYVKHMFLGWFQPLKDVIEREQKLQKNKSKKVRAAYAPHIELLPADKMAVIVMHKMMGLVMSGHEDGCIQVVQAAVSIGIAIEQEVRIHNFLKRTRKNNAGDSQEELKEKQLLRKRVNSLIRRKRIIDALKVVKSEGTKPWGRATQAKLGSRLLELLIEAAYVQPPLTQSGDSIPEFRPAFRHRFKTVTKYPGSKLVRRYGVIECDSLLLAGLDKSAKHMLIPYVPMLVPPKRWKGYDKGGYLFLPSYIMRTHGSKKQQDALKDISHKTAHRVFEALDTLGNTKWRVNRNILDVVERLWADGGNIAGLVNREDVPIPEKPSSEDPEELQSWKWSARKANKINRERHSLRCDVELKLSVARKMKDEEGFYYPHNLDFRGRAYPMHPHLNHLSSDLCRGTLEFAEGRPLGKSGLHWLKIHLANLYAGGVEKLSHDARLAFVENHLDDIMDSAENPIHGKRWWLKAEDPFQCLAACVILTQALKSPSPYSVISHLPIHQDGSCNGLQHYAALGRDSFEAAAVNLVAGEKPADVYSEISRRVHEIMKKDSSKDPESNPTAALAKILITQVDRKLVKQTVMTSVYGVTYVGAREQIKRRLEEKGVITDERMLFAAACYSAKVTLAALGEIFEAARAIMSWLGDCAKIIASDNHPVRWITPLGLPVVQPYCRSERHLIRTSLQVLALQREGNTVDVRKQRTAFPPNFVHSLDGTHMMMTAVACREAGLNFAGVHDSYWTHACDVDTMNRILREKFVELYNTPILEDLLQSFQESYPNLVFPPVPKRGDFDLKEVLKSQYFFN
B1: the binding result is given as “binds”.
